Results as given in article PMC9232636, “Insights into the mechanism of action of the arbitrium communication system in SPbeta phages” (Nature Communications, 2022).
Construct, isoform or probe ends are uncertain for at least one entry. For some assays here: No signal at the amounts used counts as a negative. For some assays here: At least one verdict was read from the data and is not stated in words by the source.

The chains behind the UniProt entries cited, without tags or fusion partners. Where a name states a change or a piece, a line headed by the entry shows the natural chain unless it says otherwise.
UniProt O64094: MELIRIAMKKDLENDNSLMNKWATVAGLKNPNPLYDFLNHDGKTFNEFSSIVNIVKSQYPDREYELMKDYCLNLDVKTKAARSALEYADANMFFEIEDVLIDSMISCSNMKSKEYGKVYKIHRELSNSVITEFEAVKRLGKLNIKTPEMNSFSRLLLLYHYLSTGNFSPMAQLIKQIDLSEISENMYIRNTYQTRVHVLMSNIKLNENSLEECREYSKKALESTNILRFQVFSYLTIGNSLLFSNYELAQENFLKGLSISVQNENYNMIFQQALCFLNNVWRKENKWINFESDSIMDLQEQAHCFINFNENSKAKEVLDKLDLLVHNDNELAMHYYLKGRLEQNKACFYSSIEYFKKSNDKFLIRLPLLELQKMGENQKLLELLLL

Key:
[1] = biological target: AimRSPb-I (untagged) (Bacillus phage SPbeta) (UniProt O64094); assay: BLI; conditions: BLI: PBS (0.01% Tween, 0.1% BSA for hydration, baseline and dissociation), AimR 0.015-2.5 uM, temperature not stated; recombinant protein; protein details: N-terminal His tag removed
AimRKat-N273A = AimRKat-N273A (UniProt A0A7G5CHT1); assay: EMSA; conditions: EMSA: 50 mM Tris pH 8, 250 mM NaCl, room temperature 10 min, 0.5 uM peptide, gel at 4 C, recombinant protein, protein details: N-terminal 6xHis removed by TEV
AimRKat = AimRKat (UniProt A0A7G5CHT1); assay: EMSA; conditions: EMSA: 50 mM Tris pH 8, 250 mM NaCl, room temperature 10 min, 0.5 uM peptide, gel at 4 C, recombinant protein, protein details: N-terminal 6xHis removed by TEV
[2] = AimPKat peptide GIVRGA (releases DNA)

How did the Kd [1] turn out when “GGGAAAGTTCCAGAAATTCAAAAATCAAAAAATAAGAACATGGGG (double strand) [aimX-boxPhi BLI probe (DNA_Phi3T_b)]” was run?
Its Kd is over 1 µM.

Does “GTTGATCACTTAAATATTAAGTTTTTATAACATCTAGTGATGGCC (double strand) [aimX-boxKat EMSA probe (DNA_kat)]” bind (AimRKat-N273A; [2])?
Result: no binding

Does “GTTGATCACTTAAATATTAAGTTTTTATAACATCTAGTGATGGCC (double strand) [aimX-boxKat EMSA probe (DNA_kat)]” bind (AimRKat-N273A; AimPPhi peptide SAIRGA)?
Result: binds

Does “GTTGATCACTTAAATATTAAGTTTTTATAACATCTAGTGATGGCC (double strand) [aimX-boxKat EMSA probe (DNA_kat)]” bind (AimRKat-N273A; AimPSPb peptide GMPRGA (releases DNA))?
Result: no binding

Does “GTTGATCACTTAAATATTAAGTTTTTATAACATCTAGTGATGGCC (double strand) [aimX-boxKat EMSA probe (DNA_kat)]” bind (AimRKat-N273A; no peptide)?
Result: binds

Does “GTTGATCACTTAAATATTAAGTTTTTATAACATCTAGTGATGGCC (double strand) [aimX-boxKat EMSA probe (DNA_kat)]” bind (AimRKat; [2])?
Result: no binding

Does “GTTGATCACTTAAATATTAAGTTTTTATAACATCTAGTGATGGCC (double strand) [aimX-boxKat EMSA probe (DNA_kat)]” bind (AimRKat; AimPPhi peptide SAIRGA)?
Result: binds

Does “GTTGATCACTTAAATATTAAGTTTTTATAACATCTAGTGATGGCC (double strand) [aimX-boxKat EMSA probe (DNA_kat)]” bind (AimRKat; AimPSPb peptide GMPRGA)?
Result: binds

Does “GTTGATCACTTAAATATTAAGTTTTTATAACATCTAGTGATGGCC (double strand) [aimX-boxKat EMSA probe (DNA_kat)]” bind (AimRKat; no peptide)?
Result: binds

Does “GTTGATCACTTAAATATTAGGTTTTAATAACATCTAGTGATGGCC (double strand) [aimX-boxSPb EMSA probe (DNA_SPb)]” bind (AimRKat; no peptide)?
Result: binds

Does “GTTGATGTTCCAGAAATTCAAAAATCAAAAAATAAGAACATGGCC (double strand) [aimX-boxPhi EMSA probe (DNA_Phi3T)]” bind (AimRKat; faint nonspecific shadow noted in review reply)?
Result: no binding
